In the supplement of paper PMC10849652:
The other results are listed elsewhere or left out.

By UniProt entry, the sequences of proteins in these tests, tags left out. Where a name states a change or a piece, a line headed by the entry shows the natural chain unless it says otherwise.
UniProt Q14011: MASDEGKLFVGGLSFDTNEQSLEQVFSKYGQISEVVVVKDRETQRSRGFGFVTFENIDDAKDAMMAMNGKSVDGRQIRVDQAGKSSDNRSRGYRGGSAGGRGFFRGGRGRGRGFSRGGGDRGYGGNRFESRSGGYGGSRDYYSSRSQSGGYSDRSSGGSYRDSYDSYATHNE
UniProt Q9HCK8: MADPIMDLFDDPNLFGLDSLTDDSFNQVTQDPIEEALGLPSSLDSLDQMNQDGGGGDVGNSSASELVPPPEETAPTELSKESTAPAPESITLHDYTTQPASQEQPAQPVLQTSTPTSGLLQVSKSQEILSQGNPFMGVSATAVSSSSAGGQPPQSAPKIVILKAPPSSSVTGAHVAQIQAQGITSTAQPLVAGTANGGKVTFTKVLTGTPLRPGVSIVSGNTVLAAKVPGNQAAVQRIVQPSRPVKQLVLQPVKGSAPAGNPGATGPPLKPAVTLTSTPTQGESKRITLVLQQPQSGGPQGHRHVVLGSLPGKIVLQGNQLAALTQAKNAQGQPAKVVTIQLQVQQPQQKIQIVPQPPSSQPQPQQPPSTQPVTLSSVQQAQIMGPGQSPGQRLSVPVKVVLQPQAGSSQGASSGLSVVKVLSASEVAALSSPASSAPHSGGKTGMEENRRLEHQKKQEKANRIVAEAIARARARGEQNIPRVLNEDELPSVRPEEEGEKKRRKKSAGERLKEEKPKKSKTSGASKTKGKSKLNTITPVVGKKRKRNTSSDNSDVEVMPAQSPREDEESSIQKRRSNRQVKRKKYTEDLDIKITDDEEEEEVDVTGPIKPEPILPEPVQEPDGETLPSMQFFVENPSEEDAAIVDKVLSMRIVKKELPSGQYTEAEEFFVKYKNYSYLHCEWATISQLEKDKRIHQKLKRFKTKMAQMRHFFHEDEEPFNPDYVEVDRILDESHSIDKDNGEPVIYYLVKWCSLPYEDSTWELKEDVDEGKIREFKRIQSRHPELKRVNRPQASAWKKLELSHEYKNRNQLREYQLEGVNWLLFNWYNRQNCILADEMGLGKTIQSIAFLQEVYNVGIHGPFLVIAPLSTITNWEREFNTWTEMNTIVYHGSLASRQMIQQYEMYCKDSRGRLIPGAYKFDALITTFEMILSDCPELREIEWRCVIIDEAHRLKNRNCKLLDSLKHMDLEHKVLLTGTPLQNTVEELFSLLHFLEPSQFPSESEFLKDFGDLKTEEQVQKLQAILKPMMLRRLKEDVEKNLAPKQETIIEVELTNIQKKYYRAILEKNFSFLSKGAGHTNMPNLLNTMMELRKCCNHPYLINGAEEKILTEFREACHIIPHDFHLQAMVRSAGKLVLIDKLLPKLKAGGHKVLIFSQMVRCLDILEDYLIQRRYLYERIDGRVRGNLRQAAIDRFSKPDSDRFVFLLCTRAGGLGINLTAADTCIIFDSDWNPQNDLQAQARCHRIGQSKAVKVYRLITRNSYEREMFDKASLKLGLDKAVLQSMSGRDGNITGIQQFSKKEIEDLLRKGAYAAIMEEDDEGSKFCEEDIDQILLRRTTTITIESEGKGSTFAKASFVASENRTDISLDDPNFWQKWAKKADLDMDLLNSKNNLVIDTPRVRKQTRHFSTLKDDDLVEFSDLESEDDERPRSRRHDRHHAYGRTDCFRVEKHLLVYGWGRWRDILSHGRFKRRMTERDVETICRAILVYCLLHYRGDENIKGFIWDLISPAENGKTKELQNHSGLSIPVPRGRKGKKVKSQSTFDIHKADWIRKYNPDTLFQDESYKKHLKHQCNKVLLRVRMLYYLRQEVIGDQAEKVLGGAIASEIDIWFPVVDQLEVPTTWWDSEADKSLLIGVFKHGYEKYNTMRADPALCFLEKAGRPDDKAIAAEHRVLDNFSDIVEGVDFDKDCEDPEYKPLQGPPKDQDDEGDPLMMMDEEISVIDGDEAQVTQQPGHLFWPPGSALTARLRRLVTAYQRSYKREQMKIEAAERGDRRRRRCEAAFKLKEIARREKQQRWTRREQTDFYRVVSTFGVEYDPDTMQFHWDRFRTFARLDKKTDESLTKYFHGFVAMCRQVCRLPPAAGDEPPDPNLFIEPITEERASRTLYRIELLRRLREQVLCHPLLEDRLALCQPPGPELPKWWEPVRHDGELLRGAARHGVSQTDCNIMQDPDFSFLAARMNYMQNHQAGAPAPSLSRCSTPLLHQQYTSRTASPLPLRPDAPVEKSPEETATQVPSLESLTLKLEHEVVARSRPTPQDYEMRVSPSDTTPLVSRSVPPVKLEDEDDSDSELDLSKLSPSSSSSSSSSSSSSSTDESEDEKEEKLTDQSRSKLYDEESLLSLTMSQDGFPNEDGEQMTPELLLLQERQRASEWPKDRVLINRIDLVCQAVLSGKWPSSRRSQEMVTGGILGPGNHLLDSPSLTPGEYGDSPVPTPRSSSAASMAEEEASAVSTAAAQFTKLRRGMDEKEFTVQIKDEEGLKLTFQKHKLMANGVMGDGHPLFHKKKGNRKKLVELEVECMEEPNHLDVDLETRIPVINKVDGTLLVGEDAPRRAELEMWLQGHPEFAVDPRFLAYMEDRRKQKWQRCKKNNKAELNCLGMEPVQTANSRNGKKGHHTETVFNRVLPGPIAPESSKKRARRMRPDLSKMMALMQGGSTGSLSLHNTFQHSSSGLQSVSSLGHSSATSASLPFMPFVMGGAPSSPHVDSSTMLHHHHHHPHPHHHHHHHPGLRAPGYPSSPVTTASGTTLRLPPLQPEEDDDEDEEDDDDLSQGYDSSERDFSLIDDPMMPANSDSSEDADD
UniProt Q7Z7K0: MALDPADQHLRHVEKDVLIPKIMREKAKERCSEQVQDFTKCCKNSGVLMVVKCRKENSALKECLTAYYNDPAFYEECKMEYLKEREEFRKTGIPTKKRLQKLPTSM
UniProt I3L2J0: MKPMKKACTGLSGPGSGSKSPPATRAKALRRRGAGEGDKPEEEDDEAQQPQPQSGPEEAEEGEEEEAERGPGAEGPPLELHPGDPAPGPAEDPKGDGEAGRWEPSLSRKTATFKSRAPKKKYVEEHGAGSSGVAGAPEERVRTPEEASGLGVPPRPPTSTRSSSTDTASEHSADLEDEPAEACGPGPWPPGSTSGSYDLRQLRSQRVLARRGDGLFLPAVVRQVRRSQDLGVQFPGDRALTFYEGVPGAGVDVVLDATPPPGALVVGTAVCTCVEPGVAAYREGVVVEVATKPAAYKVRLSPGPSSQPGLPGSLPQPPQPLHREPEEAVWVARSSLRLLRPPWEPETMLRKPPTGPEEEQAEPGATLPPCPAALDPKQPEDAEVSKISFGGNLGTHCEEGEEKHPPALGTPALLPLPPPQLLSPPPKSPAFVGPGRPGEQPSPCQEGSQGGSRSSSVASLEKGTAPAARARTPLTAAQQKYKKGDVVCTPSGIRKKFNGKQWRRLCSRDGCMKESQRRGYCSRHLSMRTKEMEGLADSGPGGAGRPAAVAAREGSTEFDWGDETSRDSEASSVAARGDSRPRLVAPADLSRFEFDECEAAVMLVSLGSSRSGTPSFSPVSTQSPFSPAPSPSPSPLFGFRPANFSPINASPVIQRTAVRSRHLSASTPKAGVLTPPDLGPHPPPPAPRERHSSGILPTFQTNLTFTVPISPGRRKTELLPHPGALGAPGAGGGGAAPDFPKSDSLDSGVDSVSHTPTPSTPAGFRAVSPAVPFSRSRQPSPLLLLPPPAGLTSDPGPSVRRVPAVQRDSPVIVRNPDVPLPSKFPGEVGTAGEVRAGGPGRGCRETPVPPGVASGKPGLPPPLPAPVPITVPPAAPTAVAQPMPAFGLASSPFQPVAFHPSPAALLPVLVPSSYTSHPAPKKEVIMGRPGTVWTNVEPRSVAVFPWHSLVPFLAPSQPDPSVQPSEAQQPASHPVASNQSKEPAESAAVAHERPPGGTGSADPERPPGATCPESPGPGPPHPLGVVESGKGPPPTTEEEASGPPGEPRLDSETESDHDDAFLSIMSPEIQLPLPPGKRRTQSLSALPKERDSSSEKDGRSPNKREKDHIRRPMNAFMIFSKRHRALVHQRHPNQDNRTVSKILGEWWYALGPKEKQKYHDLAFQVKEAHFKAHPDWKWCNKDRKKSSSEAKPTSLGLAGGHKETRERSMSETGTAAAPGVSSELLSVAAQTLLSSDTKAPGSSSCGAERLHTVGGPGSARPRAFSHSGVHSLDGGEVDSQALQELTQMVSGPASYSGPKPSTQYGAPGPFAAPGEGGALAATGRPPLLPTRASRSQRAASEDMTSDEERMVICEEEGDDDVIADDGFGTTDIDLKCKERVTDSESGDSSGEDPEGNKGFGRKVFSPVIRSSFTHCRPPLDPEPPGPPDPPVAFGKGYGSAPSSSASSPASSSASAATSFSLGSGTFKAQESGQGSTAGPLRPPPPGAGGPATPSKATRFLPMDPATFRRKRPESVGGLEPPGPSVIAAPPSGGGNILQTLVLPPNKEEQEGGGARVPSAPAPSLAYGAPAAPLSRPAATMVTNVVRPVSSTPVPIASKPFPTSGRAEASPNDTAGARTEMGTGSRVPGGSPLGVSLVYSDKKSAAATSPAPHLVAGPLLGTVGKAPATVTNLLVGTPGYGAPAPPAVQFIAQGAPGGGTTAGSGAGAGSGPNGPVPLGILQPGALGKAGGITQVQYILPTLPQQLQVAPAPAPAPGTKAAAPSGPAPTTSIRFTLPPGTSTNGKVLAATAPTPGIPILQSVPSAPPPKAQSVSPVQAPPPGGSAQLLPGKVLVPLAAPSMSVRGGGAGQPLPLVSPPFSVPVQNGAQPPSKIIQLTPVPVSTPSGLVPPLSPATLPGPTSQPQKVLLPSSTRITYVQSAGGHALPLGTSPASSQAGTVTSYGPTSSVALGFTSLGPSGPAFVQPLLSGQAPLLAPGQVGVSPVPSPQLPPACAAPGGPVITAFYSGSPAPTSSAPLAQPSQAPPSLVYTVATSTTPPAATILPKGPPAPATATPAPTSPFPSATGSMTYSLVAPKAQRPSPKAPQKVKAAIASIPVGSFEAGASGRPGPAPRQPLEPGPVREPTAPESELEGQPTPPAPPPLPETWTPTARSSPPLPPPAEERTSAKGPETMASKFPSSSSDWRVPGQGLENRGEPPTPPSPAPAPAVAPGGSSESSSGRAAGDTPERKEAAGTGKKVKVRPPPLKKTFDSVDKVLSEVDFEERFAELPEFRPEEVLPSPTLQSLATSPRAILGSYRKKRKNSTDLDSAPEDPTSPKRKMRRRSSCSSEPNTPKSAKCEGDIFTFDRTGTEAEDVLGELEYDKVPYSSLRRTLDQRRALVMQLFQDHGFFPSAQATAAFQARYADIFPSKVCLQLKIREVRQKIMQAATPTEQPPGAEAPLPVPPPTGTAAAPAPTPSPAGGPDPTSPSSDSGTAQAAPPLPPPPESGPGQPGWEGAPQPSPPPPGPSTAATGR
UniProt Q8N4Q1: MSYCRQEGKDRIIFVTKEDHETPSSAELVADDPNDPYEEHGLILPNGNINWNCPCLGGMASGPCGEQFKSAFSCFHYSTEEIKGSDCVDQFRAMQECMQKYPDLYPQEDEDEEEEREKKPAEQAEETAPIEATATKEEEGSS
UniProt Q9Y259: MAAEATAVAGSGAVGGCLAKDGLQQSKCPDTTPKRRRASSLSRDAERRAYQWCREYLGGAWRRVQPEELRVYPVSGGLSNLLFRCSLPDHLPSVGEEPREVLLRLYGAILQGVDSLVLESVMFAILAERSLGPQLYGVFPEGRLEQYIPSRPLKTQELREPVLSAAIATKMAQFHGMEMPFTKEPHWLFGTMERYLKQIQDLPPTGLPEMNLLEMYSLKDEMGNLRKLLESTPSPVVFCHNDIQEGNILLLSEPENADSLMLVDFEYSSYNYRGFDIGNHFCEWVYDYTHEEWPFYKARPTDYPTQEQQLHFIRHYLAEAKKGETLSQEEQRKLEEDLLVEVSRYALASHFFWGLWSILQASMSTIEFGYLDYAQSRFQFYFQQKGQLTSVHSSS
UniProt P24386: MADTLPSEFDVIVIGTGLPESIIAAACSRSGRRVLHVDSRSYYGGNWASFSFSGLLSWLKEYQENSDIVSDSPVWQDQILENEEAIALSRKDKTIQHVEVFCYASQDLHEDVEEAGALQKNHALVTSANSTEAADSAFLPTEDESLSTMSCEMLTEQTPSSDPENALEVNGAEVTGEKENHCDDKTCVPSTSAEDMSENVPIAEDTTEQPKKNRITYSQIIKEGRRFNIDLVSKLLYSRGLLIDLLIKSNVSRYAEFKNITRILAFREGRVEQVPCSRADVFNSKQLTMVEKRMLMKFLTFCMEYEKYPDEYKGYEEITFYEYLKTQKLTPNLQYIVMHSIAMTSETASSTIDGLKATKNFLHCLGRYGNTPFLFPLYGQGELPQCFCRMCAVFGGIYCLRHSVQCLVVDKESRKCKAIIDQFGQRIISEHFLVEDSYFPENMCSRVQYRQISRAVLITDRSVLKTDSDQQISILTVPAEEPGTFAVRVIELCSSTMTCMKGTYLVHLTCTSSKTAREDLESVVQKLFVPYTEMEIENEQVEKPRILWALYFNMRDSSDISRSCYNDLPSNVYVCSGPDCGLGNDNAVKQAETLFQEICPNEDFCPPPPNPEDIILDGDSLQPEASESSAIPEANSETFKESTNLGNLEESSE

Key:
Test in all cases: log2 fold change, soluble protein after heating vs DMSO (PISA); higher = thermal stabilisation; K562 lysate, 10 uM; active = over 0.2 and 3.5 SD of the protein, either way, in both replicates (recomputed)
erlotinib = compound: C#Cc1cccc(Nc2ncnc3cc(OCCOC)c(OCCOC)cc23)c1 [erlotinib]
Summary of the method: (§1)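 K562 pellets were dounce-homogenised in PBS pH 7.4 containing 1 mM MgCl2, and the crude extract, at 1 mg/mL protein, was exposed to 10 μM compound for 30 min. Aliquots were heated for 3 min across 48°C-58°C, pooled, brought to 0.5% NP-40 at 4°C and spun at 21,000xg for 90 min, with the supernatant taken as soluble protein. TMTpro 16plex LC-MS/MS with equalised channel sums quantified that protein. Values are log-two fold changes in thermal stability relative to solvent controls, taken from duplicates.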

[1] = compound: C/C(=N\NC(=O)C1=CC(=CC=C1)S(=O)(=O)N2CCOCC2)/C3=C(C=CC(=C3)Cl)O
Summary of the method: as §1

[2] = compound: C1=CC(=CC=C1C2=NC3=C(N2)C=C(C=C3)C(=O)N)OC4=CC=C(C=C4)Cl
Summary of the method: as §1

[3] = compound: C1=CC2=C(C=CC(=C2)/C=C\3/C(=O)NC(=NCC4=CC=CS4)S3)N=C1
Summary of the method: as §1

[4] = compound: C1=CC2=NC=CN=C2C=C1/C=C/3\C(=O)NC(=O)S3
Summary of the method: as §1

[5] = compound: C1=CC=C(C=C1)C2=NC(=C(N2)C3=CC=NC=C3)C4=CC(=C(C=C4)Cl)O
Summary of the method: as §1

[6] = compound: C1=CC=C2C(=C1)C3=NNC4=CC=CC(=C43)C2=O
Summary of the method: as §1

[7] = compound: C1CCN(C1)C(=O)NC2=CC=CC(=C2)NC3=NC=C(C(=N3)NCCC4=CN=CN4)Br
Summary of the method: as §1

[8] = compound: C1CN(CCC1(CC2=CC=C(C=C2)Cl)N)C3=NC=NC4=C3C=CN4
Summary of the method: as §1

IRAK-1-4 Inhibitor I = compound: C1COCCN1CCN2C3=CC=CC=C3N=C2NC(=O)C4=CC(=CC=C4)[N+](=O)[O-] [IRAK-1-4 Inhibitor I]
Summary of the method: as §1

ibrutinib = compound: C=CC(=O)N1CCC[C@@H](n2nc(-c3ccc(Oc4ccccc4)cc3)c3c(N)ncnc32)C1 [ibrutinib]
Summary of the method: as §1

[9] = compound: CC(=O)c1cnc2ccc(-c3cc(Cl)c(O)c(Cl)c3)nc2c1N[C@H]1CC[C@H](CN(C)C)CC1
Summary of the method: as §1

ralimetinib = compound: CC(C)(C)Cn1c(N)nc2ccc(-c3[nH]c(C(C)(C)C)nc3-c3ccc(F)cc3)nc21 [ralimetinib]
Summary of the method: as §1

[10] = compound: CC(C)(O)CC(=O)NCCn1ccc2ncnc(Nc3ccc(Oc4cccc(C(F)(F)F)c4)c(Cl)c3)c21
Summary of the method: as §1

[11] = compound: CC(C)C1=C2N=C(C=C(N2N=C1)NCC3=CC=CC=C3)NCCCCCCN
Summary of the method: as §1

[12] = compound: CC1=C(C(CC(=O)N1)C2=CC=C(C=C2)C(F)(F)F)C(=O)NC3=C(C=C4C(=C3)C=NN4)F
Summary of the method: as §1

[13] = compound: CC1=C(C2=C(C=C1)C(=O)C3=CC=CC=C3N2CCCN)C
Summary of the method: as §1

[14] = compound: CC1=C(C=C(C=C1)NC(=O)C2=CC(=CC=C2)C(C)(C)C#N)NC3=CC4=C(C=C3)N=CN(C4=O)C
Summary of the method: as §1

[15] = compound: CC1=C(C=C(C=C1)NC(=O)C2=CC(=CC=C2)N(C)C)NC(=O)C3=CC=C(C=C3)O
Summary of the method: as §1

[16] = compound: CC1=CC=C(C=C1)SC2=C3C=C(SC3=CN=C2)C(=O)N
Summary of the method: as §1

Measured: log2 fold change

CIT isoform 4 (UniProt O14578)
inactive: erlotinib 0.045 | [1] -0.032 | [2] 0.006 | [3] 0.043 | [4] -0.02 | [5] 0.031 | [6] 0.028 | [7] -0.003 | [8] 0.056 | IRAK-1-4 Inhibitor I 0.001 | ibrutinib 0.013 | [9] 0.072 | ralimetinib -0.007 | [10] -0.01 | [11] 0.003 | [12] 0.005 | [13] 0.005 | [14] -0.018 | [15] 0.004 | [16] -0.015

CIRBP (UniProt Q14011)
inactive: erlotinib 0.02 | [1] -0.077 | [2] 0.031 | [3] 0.03 | [4] 0.003 | [5] 0.017 | [6] -0.019 | [7] 0.033 | [8] 0.015 | IRAK-1-4 Inhibitor I 0.012 | ibrutinib 0 | [9] -0.023 | ralimetinib 0.006 | [10] -0.011 | [11] -0.02 | [12] 0 | [13] 0 | [14] 0 | [15] -0.012 | [16] 0.018

CHD8 (UniProt Q9HCK8)
inactive: erlotinib 0.042 | [1] 0.045 | [2] -0.052 | [3] 0.012 | [4] -0.026 | [5] 0.035 | [6] 0.042 | [7] -0.038 | [8] 0.039 | IRAK-1-4 Inhibitor I -0.004 | ibrutinib -0.012 | [9] -0.061 | ralimetinib 0.018 | [10] -0.015 | [11] 0.018 | [12] -0.036 | [13] -0.035 | [14] -0.037 | [15] 0.053 | [16] 0.091

CHD1L (UniProt Q86WJ1)
inactive: erlotinib -0.017 | [1] 0.007 | [2] -0.028 | [3] 0.036 | [4] 0.031 | [5] -0.014 | [6] -0.054 | [7] -0.012 | [8] 0.013 | IRAK-1-4 Inhibitor I 0.003 | ibrutinib -0.032 | [9] 0.03 | ralimetinib 0.024 | [10] -0.011 | [11] -0.001 | [12] 0.008 | [13] -0.043 | [14] 0.029 | [15] 0.061 | [16] 0.019

CHD5 (UniProt Q8TDI0)
inactive: erlotinib 0.008 | [1] -0.004 | [2] -0.031 | [3] 0.056 | [4] -0.035 | [5] 0.043 | [6] -0.072 | [7] 0.058 | [8] -0.003 | IRAK-1-4 Inhibitor I -0.016 | ibrutinib -0.063 | [9] 0.015 | ralimetinib 0 | [10] 0.005 | [11] -0.011 | [12] 0.026 | [13] -0.026 | [14] -0.005 | [15] 0.029 | [16] 0.01

CHMP3 (UniProt Q9Y3E7)
inactive: erlotinib 0.004 | [1] 0.02 | [2] -0.006 | [3] -0.008 | [4] 0.002 | [5] 0.009 | [6] 0.041 | [7] 0.017 | [8] 0.004 | IRAK-1-4 Inhibitor I 0.042 | ibrutinib 0.006 | [9] 0.005 | ralimetinib -0.002 | [10] -0.075 | [11] 0.002 | [12] -0.066 | [13] -0.015 | [14] 0.064 | [15] -0.012 | [16] -0.002

CMC1 (UniProt Q7Z7K0)
inactive: erlotinib -0.008 | [1] -0.042 | [2] 0.049 | [3] 0.053 | [4] -0.015 | [5] 0.068 | [6] -0.054 | [7] 0.05 | [8] 0.01 | IRAK-1-4 Inhibitor I -0.02 | ibrutinib -0.089 | [9] -0.027 | ralimetinib -0.023 | [10] -0.003 | [11] 0.008 | [12] 0.051 | [13] -0.032 | [14] -0.081 | [15] -0.031 | [16] -0.029

CKAP5 (UniProt Q14008)
inactive: erlotinib 0.018 | [1] 0.003 | [2] 0.005 | [3] -0.01 | [4] -0.009 | [5] 0.002 | [6] -0.055 | [7] -0.015 | [8] 0.004 | IRAK-1-4 Inhibitor I 0.001 | ibrutinib -0.024 | [9] -0.008 | ralimetinib 0.015 | [10] -0.012 | [11] -0.007 | [12] 0.007 | [13] 0.005 | [14] -0.013 | [15] 0.023 | [16] 0.006

CIC (UniProt I3L2J0)
inactive: erlotinib 0.013 | [1] -0.248 | [2] 0.079 | [3] 0.122 | [4] 0.027 | [5] -0.047 | [6] -0.062 | [7] 0.005 | [8] -0.04 | IRAK-1-4 Inhibitor I 0.04 | ibrutinib 0.036 | [9] 0.044 | ralimetinib 0.055 | [10] -0.083 | [11] 0.013 | [12] 0.054 | [13] -0.044 | [14] 0.029 | [15] 0.02 | [16] 0.028

CHCHD1 (UniProt Q96BP2)
inactive: erlotinib -0.002 | [1] -0.7 | [2] 0.029 | [3] -0.053 | [4] 0.005 | [5] 0.021 | [6] -0.002 | [7] 0.04 | [8] 0.043 | IRAK-1-4 Inhibitor I 0.068 | ibrutinib -0.004 | [9] 0.021 | ralimetinib 0.047 | [10] -0.101 | [11] -0.059 | [12] 0 | [13] -0.081 | [14] -0.014 | [15] -0.032 | [16] -0.055

Quoted at random: 2 entries already listed.
CHMP3 (UniProt Q9Y3E7)
inactive: erlotinib 0.004 | [1] 0.02 | [2] -0.006 | [3] -0.008 | [4] 0.002 | [5] 0.009 | [6] 0.041 | [7] 0.017 | [8] 0.004 | IRAK-1-4 Inhibitor I 0.042 | ibrutinib 0.006 | [9] 0.005 | ralimetinib -0.002 | [10] -0.075 | [11] 0.002 | [12] -0.066 | [13] -0.015 | [14] 0.064 | [15] -0.012 | [16] -0.002

CHCHD1 (UniProt Q96BP2)
inactive: erlotinib -0.002 | [1] -0.7 | [2] 0.029 | [3] -0.053 | [4] 0.005 | [5] 0.021 | [6] -0.002 | [7] 0.04 | [8] 0.043 | IRAK-1-4 Inhibitor I 0.068 | ibrutinib -0.004 | [9] 0.021 | ralimetinib 0.047 | [10] -0.101 | [11] -0.059 | [12] 0 | [13] -0.081 | [14] -0.014 | [15] -0.032 | [16] -0.055

(listing goes on)

CHCHD4 isoform 2 (UniProt Q8N4Q1)
inactive: erlotinib -0.069 | [1] -0.06 | [2] -0.068 | [3] -0.028 | [4] -0.111 | [5] -0.018 | [6] -0.073 | [7] -0.044 | [8] 0.009 | IRAK-1-4 Inhibitor I 0.016 | ibrutinib 0.076 | [9] -0.041 | ralimetinib 0.034 | [10] -0.091 | [11] -0.015 | [12] 0.076 | [13] 0.002 | [14] 0.039 | [15] 0 | [16] 0.013

CHKA (UniProt P35790)
inactive: erlotinib -0.071 | [1] -0.011 | [2] 0.021 | [3] -0.003 | [4] -0.1 | [5] -0.081 | [6] 0.008 | [7] 0.007 | [8] 0.009 | IRAK-1-4 Inhibitor I -0.037 | ibrutinib 0.008 | [9] 0.083 | ralimetinib -0.008 | [10] -0.012 | [11] -0.058 | [12] -0.058 | [13] 0.02 | [14] 0.05 | [15] 0.001 | [16] -0.047

CIB1 (UniProt Q99828)
inactive: erlotinib -0.039 | [1] 0.126 | [2] 0.013 | [3] 0.042 | [4] -0.227 | [5] 0.023 | [6] 0.02 | [7] 0.045 | [8] 0.073 | IRAK-1-4 Inhibitor I 0.026 | ibrutinib 0.096 | [9] -0.137 | ralimetinib 0.004 | [10] -0.056 | [11] -0.027 | [12] 0.007 | [13] -0.041 | [14] 0.042 | [15] -0.003 | [16] -0.066

CHKB (UniProt Q9Y259)
inactive: erlotinib -0.069 | [1] 0.024 | [2] 0.022 | [3] -0.044 | [4] 0.031 | [5] 0.031 | [6] 0.016 | [7] -0.032 | [8] 0.083 | IRAK-1-4 Inhibitor I 0.029 | ibrutinib 0.078 | [9] 0.013 | ralimetinib 0.021 | [10] -0.032 | [11] 0.017 | [12] 0.044 | [13] -0.009 | [14] 0.095 | [15] 0.055 | [16] -0.025

CHM (UniProt P24386)
inactive: erlotinib 0.041 | [1] 0.012 | [2] 0.063 | [3] -0.121 | [4] -0.055 | [5] 0.014 | [6] -0.033 | [7] -0.02 | [8] 0.018 | IRAK-1-4 Inhibitor I 0.049 | ibrutinib 0.03 | [9] -0.05 | ralimetinib 0.036 | [10] -0.031 | [11] -0.038 | [12] -0.08 | [13] 0.035 | [14] -0.023 | [15] -0.064 | [16] 0.015

CIAO1 (UniProt O76071)
inactive: erlotinib 0.002 | [1] 0.023 | [2] 0.001 | [3] -0.025 | [4] -0.012 | [5] 0.016 | [6] -0.007 | [7] 0.002 | [8] 0.005 | IRAK-1-4 Inhibitor I 0.009 | ibrutinib 0.01 | [9] -0.002 | ralimetinib -0.005 | [10] -0.024 | [11] 0.013 | [12] 0.041 | [13] -0.016 | [14] 0.015 | [15] -0.061 | [16] -0.01
